Laboratory results as given in article PMC11705415.
Results are given in words; binding and its absence hold for the method and conditions named. Binding seen in cells or lysates may run through a third protein. Some entries that bind do so weakly or less than the wild type. For part of these data: Tags and fused reporters may be left off the sequences shown.

Amino acid sequences for entries named in this document (tags omitted). A change or cut given only in a name is not applied to a line headed by its entry.
UniProt P28740: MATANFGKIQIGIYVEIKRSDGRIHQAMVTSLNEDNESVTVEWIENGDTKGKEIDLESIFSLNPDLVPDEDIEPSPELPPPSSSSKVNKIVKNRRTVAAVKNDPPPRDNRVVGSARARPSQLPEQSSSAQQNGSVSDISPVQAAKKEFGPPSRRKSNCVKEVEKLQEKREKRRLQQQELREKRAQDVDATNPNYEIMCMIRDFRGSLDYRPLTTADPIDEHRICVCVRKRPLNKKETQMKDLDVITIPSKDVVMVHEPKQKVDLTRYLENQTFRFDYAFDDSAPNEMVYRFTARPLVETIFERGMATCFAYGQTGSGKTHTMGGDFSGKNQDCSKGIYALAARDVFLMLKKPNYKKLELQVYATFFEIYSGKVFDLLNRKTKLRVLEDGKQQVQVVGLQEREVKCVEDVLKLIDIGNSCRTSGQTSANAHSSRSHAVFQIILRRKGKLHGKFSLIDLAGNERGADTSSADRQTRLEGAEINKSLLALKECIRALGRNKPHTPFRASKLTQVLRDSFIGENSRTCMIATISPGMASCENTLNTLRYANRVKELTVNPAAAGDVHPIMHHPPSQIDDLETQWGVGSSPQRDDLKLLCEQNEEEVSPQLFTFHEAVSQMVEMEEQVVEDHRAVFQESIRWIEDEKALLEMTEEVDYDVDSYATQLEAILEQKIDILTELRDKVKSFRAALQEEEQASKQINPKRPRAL
UniProt P62069: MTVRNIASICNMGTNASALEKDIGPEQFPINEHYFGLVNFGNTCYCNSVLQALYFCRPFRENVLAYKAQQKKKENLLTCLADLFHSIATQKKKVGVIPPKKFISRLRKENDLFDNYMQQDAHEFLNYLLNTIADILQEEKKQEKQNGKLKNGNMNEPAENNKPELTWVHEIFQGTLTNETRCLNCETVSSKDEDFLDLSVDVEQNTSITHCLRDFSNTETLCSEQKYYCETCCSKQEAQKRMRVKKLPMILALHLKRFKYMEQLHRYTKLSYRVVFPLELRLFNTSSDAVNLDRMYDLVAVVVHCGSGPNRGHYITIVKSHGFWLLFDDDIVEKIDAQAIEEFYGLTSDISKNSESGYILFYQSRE

Tests used:
Assay in all cases: split reporter; BiFC: VN155(I152L)-USP46 and VC155-tagged protein co-expressed in Neuro2a cells, fixed after 24 h, fluorescence of reconstituted Venus by microscopy
VC-tagged SIRT2 = biological target: T1, VC-tagged SIRT2 (UniProt Q8VDQ8)
T1 sequence: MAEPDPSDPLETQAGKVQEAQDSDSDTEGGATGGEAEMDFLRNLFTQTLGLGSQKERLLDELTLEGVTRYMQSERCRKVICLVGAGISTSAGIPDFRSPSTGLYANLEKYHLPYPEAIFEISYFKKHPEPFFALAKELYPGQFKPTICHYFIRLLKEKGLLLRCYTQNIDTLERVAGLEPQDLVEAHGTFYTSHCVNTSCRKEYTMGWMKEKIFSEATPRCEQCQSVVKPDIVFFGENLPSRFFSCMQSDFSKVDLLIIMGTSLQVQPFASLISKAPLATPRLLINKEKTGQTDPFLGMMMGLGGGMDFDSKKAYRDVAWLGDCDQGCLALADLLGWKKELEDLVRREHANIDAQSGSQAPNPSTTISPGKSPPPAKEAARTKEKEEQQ

VC-tagged HAP1 = biological target: T2, VC-tagged HAP1 (UniProt O35668)
T2 sequence: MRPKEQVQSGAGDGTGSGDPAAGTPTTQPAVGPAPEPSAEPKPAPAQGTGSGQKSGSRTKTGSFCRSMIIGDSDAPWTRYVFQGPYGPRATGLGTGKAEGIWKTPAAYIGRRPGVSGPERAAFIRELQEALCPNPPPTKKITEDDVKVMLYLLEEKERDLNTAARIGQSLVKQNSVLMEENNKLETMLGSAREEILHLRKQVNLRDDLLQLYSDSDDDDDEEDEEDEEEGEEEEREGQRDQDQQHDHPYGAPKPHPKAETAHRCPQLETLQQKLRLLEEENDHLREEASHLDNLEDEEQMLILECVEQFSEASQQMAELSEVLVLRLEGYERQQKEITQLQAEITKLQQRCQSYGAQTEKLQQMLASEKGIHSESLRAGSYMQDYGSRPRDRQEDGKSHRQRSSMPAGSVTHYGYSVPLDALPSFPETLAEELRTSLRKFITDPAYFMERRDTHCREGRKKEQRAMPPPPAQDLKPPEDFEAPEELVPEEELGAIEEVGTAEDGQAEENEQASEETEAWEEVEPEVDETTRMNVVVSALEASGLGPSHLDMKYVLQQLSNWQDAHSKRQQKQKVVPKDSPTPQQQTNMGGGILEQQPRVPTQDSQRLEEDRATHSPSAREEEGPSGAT

VC-tagged AHI1 = biological target: T3, VC-tagged AHI1 (UniProt Q8K3E5)
T3 sequence: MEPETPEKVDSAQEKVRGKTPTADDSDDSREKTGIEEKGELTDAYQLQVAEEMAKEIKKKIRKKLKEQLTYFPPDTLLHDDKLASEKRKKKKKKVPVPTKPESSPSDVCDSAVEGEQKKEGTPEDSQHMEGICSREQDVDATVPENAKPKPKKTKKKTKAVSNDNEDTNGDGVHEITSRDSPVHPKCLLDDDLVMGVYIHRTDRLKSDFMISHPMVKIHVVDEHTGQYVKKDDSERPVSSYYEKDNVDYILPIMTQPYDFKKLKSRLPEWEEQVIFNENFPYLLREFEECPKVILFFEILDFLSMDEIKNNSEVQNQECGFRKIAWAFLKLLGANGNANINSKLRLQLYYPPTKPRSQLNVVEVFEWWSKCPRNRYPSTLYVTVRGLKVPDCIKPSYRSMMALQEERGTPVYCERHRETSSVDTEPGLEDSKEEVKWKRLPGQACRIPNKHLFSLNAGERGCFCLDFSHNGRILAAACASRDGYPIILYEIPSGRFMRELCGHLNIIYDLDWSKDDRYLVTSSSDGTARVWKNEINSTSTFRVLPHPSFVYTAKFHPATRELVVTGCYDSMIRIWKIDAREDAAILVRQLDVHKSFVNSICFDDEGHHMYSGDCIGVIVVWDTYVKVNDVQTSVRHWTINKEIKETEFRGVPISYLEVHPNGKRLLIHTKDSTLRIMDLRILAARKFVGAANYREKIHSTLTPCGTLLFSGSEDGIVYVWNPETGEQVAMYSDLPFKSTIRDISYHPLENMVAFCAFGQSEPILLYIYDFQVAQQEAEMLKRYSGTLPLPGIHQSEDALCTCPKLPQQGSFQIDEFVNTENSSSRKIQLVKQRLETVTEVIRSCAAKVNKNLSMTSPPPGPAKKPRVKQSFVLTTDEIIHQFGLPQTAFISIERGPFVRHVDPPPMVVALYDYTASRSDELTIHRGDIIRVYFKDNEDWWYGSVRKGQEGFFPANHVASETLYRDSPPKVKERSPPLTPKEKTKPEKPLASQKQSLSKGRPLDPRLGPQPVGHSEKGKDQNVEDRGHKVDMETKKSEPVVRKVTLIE

VC-tagged SNAP29 = biological target: T4, VC-tagged SNAP29 (UniProt Q9ERB0)
T4 sequence: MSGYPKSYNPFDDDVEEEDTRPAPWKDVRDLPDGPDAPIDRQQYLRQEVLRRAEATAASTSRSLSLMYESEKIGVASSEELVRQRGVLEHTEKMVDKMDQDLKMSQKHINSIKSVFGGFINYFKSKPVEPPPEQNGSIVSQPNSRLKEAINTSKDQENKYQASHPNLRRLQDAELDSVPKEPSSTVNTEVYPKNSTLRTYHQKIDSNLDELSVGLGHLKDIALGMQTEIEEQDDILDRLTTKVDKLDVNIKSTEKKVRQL

VC-tagged HOOK3 = biological target: T5, VC-tagged HOOK3 (UniProt Q8BUK6)
T5 sequence: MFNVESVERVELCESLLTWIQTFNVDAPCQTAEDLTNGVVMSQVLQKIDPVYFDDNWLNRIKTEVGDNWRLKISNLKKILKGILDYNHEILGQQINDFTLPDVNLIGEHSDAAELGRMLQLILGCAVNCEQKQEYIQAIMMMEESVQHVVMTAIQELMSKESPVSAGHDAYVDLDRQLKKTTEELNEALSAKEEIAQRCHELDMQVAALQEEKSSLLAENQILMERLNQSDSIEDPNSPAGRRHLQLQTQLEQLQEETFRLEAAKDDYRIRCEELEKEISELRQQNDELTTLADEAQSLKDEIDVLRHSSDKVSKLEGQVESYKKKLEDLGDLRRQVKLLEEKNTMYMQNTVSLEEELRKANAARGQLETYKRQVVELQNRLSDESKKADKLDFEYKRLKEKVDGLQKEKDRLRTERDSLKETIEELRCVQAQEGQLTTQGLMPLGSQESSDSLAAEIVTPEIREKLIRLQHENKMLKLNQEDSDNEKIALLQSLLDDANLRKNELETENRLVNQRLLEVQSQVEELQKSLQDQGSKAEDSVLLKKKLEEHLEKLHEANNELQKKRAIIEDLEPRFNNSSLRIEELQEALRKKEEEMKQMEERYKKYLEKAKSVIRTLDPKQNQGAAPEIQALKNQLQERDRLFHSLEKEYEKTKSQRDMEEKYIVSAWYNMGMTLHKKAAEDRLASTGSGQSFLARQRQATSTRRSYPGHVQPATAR

VC-tagged KIF2A = VC-tagged KIF2A (UniProt P28740)

binding (VC-tagged SIRT2): binds
binding (VC-tagged HAP1): binds
binding (VC-tagged AHI1): binds
binding (VC-tagged SNAP29): binds
binding (VC-tagged HOOK3): binds
binding (VC-tagged KIF2A): binds
Substance: USP46 fused with the N-terminal fragment of Venus (VN155, I152L) (from UniProt P62069 1-366) (enzyme)
